This is one part of the list.
What follows are sequences tested against T1, OsSMF1 (Oryza sativa, UniProt Q6ZLB0 1-436) (assay: protein-binding microarray (RPBM); PBS, 2% BSA, 51.3 ng/ul salmon testes DNA, 50 uM zinc acetate, 200 nM TF, 25 C, 1 h; high values mean tight binding). Conditions: protein: recombinant; tags: N-terminal polyhistidine and DsRed monomer fusion (pET32a); chain copies: 2; label: CyDye5-dUTP incorporated in the synthesized complementary strand; 3' TTTTT single-stranded linker to array surface; dsDNA, one strand shown.
T1 sequence: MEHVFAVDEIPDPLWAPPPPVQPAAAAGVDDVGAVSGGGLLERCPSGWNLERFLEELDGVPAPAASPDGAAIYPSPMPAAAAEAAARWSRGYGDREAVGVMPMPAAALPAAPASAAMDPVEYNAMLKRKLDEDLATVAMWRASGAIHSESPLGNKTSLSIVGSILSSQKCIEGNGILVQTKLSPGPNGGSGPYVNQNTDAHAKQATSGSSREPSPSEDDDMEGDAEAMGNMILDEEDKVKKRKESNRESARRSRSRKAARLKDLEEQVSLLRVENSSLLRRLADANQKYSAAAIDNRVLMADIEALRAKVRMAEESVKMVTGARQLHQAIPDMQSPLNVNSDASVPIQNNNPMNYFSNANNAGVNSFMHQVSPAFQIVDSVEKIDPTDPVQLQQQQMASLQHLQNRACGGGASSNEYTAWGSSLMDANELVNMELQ
Outline: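 Transcription factors, each fused N-terminally to a polyhistidine tag and DsRed, were expressed in E. coli BL21-CodonPlus and purified on Ni–NTA. A custom Agilent array was made double-stranded by primer extension with Cy5-dUTP and blocked with 2% BSA. It was incubated with 200 nM protein in PBS, 2% BSA, salmon testes DNA and 50 µM zinc acetate at 25 °C for 1 h, then washed. The binding signal is per-feature fluorescence intensity (arbitrary units) read on an Axon 4000B scanner.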
For “AATTTTAAGTGTGCTTCGTCACTGGTTGTGAGCGAGTATTCGGAGTCACCTAGTGCAG”, the binding signal was 6110 fluorescence intensity (a.u.).
In the case of “TCGATGAAACTGCTACCAAATAAACACGTTGGCATGTGATCGGAGTCACCTAGTGCAG”, the binding signal is reported as 4500 fluorescence intensity (a.u.).
“CCTTCCACATATGCTCATTCGAAAGTAACAAATTCACTCGCGGAGTCACCTAGTGCAG” was tested, and the binding signal was 3190 fluorescence intensity (a.u.).
For “AGGGCAGCGGCCTCGTCACCGTCGCCACCTTCGCCTCCATCGGAGTCACCTAGTGCAG”, the binding signal was 7360 fluorescence intensity (a.u.).
In the case of “ACTGTCCAGATTTACGGATCCTGACAAGGACACGTCATGCCGGAGTCACCTAGTGCAG”, the binding signal is reported as 13800 fluorescence intensity (a.u.).
For “GCCGATTCGGCGATTGCATCAGACTGACCAACAAGATACACGGAGTCACCTAGTGCAG”, the binding signal was 3200 fluorescence intensity (a.u.).
“CGCCGCCGCCGTCGCTGCCGCCGCCGCCGCCGCCTAGGGTCGGAGTCACCTAGTGCAG” was tested, and the binding signal was 29300 fluorescence intensity (a.u.).
With “AGAGCCTGCGCCACCAACTCTACTGTACTGAGCAGAGTAGCGGAGTCACCTAGTGCAG” the binding signal was 38300 fluorescence intensity (a.u.).
With “ACCGGCCACATACCGCCGGTTAGACCGGCTTTCAAGCCGCCGGAGTCACCTAGTGCAG” the binding signal was 18000 fluorescence intensity (a.u.).
For “ATATTCATCTATACTTTTATATGTCATGGTTGTTAACCCACGGAGTCACCTAGTGCAG”, the binding signal was 3490 fluorescence intensity (a.u.).
For “GTGGGGAAGGAGATTGCCAAGGTTCCAAGCCCAGAACCAGCGGAGTCACCTAGTGCAG”, the binding signal was 4300 fluorescence intensity (a.u.).
In the case of “TATCTGGATAAATTCACCTCCCTTGTGTGGAATAGTAATGCGGAGTCACCTAGTGCAG”, the binding signal is reported as 3670 fluorescence intensity (a.u.).
For “TTTACTGTAGCACCACATTGTCAAATTATGACGTAATTAGCGGAGTCACCTAGTGCAG”, the binding signal was 5440 fluorescence intensity (a.u.).
In the case of “GGGATTAATCCAAACTAATCCACATCAACCTGCACCAATCCGGAGTCACCTAGTGCAG”, the binding signal is reported as 4780 fluorescence intensity (a.u.).
With “CTCCTACATGCACTCCCCTCTACAAAACCACAACCAGCATCGGAGTCACCTAGTGCAG” the binding signal was 3600 fluorescence intensity (a.u.).
For “ATAAGCTCAAGATCTCTTTCTTTTCTCACTTTGCACGATTCGGAGTCACCTAGTGCAG”, the binding signal was 12700 fluorescence intensity (a.u.).
“TCTGTATATATTACTACTTGCGTTTCTCTTTCTTTCTTCCCGGAGTCACCTAGTGCAG” was tested, and the binding signal was 3150 fluorescence intensity (a.u.).
“GCTCCAAACCTTAGATATACTGCTGCGGCGCCTCCGAGCTCGGAGTCACCTAGTGCAG” was tested, and the binding signal was 3380 fluorescence intensity (a.u.).
With “TCCATCTCCTCCCTCCCCGGTGGGTGACGTCACGCCTTCGCGGAGTCACCTAGTGCAG” the binding signal was 30200 fluorescence intensity (a.u.).
“ATCTTCTGAATCTGAAGTGCTAAATTGTCAAAATATTAGTCGGAGTCACCTAGTGCAG” was tested, and the binding signal was 3160 fluorescence intensity (a.u.).
In the case of “GCCCATGGTCCTATCCACGCCGCGTCAGGAGGAAGCAGAGCGGAGTCACCTAGTGCAG”, the binding signal is reported as 3230 fluorescence intensity (a.u.).
With “CTAAAATGTAAAATATGATCTAGCGAAGGAGTAAAATGCACGGAGTCACCTAGTGCAG” the binding signal was 3810 fluorescence intensity (a.u.).
With “GAGCTTTACGCCGGTTTATATTTTCGTACGCGGCCATTTGCGGAGTCACCTAGTGCAG” the binding signal was 3520 fluorescence intensity (a.u.).
“TAGAGAATGAAGTAAGGATGATATGTTTCGCTGACACATGCGGAGTCACCTAGTGCAG” was tested, and the binding signal was 4520 fluorescence intensity (a.u.).
With “ATGGGCCAGGCCGGGACGATGACGTAGTCTCCAACCGCCACGGAGTCACCTAGTGCAG” the binding signal was 6660 fluorescence intensity (a.u.).
In the case of “AGCTCGGCCATCGCCCACTCCACGGTGGTCGTCATCGTGTCGGAGTCACCTAGTGCAG”, the binding signal is reported as 3900 fluorescence intensity (a.u.).
In the case of “TAAGATGGTTTTGCTAGTACTTTGATACGTCATCCGTGTACGGAGTCACCTAGTGCAG”, the binding signal is reported as 5010 fluorescence intensity (a.u.).
In the case of “GTTAAGGACGTAGGATTGGAACGTCGATGCGACACTAAACCGGAGTCACCTAGTGCAG”, the binding signal is reported as 8730 fluorescence intensity (a.u.).
In the case of “TTGTGCCGAGGAAGTGATGGGATAACGTTAGTCACATAAACGGAGTCACCTAGTGCAG”, the binding signal is reported as 5890 fluorescence intensity (a.u.).
With “ACTTCACCAGTTCACCACCGTGGCACTCCCTGGGACTGAACGGAGTCACCTAGTGCAG” the binding signal was 3640 fluorescence intensity (a.u.).
“ACGGTGATCGGGCACAAGCGGCGCCAGGACGAGGGCGGCGCGGAGTCACCTAGTGCAG” was tested, and the binding signal was 21900 fluorescence intensity (a.u.).
“ACCTACCAAAGTGACAAGGCATTTTGTCCCGGATGGTTTTCGGAGTCACCTAGTGCAG” was tested, and the binding signal was 5280 fluorescence intensity (a.u.).
For “CTGTACAGGCTCATGACGTACCACGAGGTCATCGACGAGACGGAGTCACCTAGTGCAG”, the binding signal was 4310 fluorescence intensity (a.u.).
“TACAGGCGCCCTCCTCCTACCACGTCGGTTCGAGTGTGCCCGGAGTCACCTAGTGCAG” was tested, and the binding signal was 4970 fluorescence intensity (a.u.).
With “TCTCCTACGTACAGCCACCTTACCTGTTGCGTCAACGAGACGGAGTCACCTAGTGCAG” the binding signal was 3450 fluorescence intensity (a.u.).
For “TTAATAATCACTAGTGGTCACACGTGTAAGCACTACTAGTCGGAGTCACCTAGTGCAG”, the binding signal was 5390 fluorescence intensity (a.u.).
For “ACAGCGTTGTGCTTTCAGTGGTAGGTGACGTACCCGTCGACGGAGTCACCTAGTGCAG”, the binding signal was 5560 fluorescence intensity (a.u.).
For “TGACCTTTGTGCATGTTTTCGTGCGCTGAATCATGCTTGACGGAGTCACCTAGTGCAG”, the binding signal was 3590 fluorescence intensity (a.u.).
With “TCTCTCTCTCTCGCACAATCATCGCCGCCACCACCCTCTGCGGAGTCACCTAGTGCAG” the binding signal was 3410 fluorescence intensity (a.u.).
In the case of “AGCTTGGGACATTGGTATCTATTGTTCGACAGGTAAGATGCGGAGTCACCTAGTGCAG”, the binding signal is reported as 3410 fluorescence intensity (a.u.).
With “AGTTTTATAAAAGAGGTGGATGTTGCATCTAATCTTGACCCGGAGTCACCTAGTGCAG” the binding signal was 7990 fluorescence intensity (a.u.).
In the case of “TTACATTGGGGTGGGAGATGACGCAGTCGGCGACGGCACCCGGAGTCACCTAGTGCAG”, the binding signal is reported as 4870 fluorescence intensity (a.u.).
